Measurements as given in doi:10.1101/830380.
These are yes or no findings as the source states them, for the method shown. Binding seen in cells or lysates may run through a third protein. Some results given as binding are weak or reduced against the parent protein; the word gives no strength. For some assays here: Sequences can lack the tags named with a protein. Blank lines part the entries; values can stand above or below the binder they belong to.

Assays:
[1] = target: T1, Asc-Myc (wild-type mouse apoptosis-associated speck-like protein containing a Card), expressed in HEK293 cells (mouse) (UniProt Q9EPB4); test: co-IP
T1 sequence: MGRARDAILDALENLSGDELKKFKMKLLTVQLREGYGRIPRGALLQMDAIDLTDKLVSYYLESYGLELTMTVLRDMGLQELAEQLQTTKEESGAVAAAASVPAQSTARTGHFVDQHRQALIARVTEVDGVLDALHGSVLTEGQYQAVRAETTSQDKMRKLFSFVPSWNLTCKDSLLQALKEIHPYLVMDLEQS

[2] = target: T2, endogenous Asc of J774A.1 cells (mouse (endogenous in J774A.1)) (UniProt Q9EPB4); test: co-IP
T2 sequence: T1 sequence

binding [1]: binds
B1: Mul1-FLAG (wild-type mouse mitochondrial E3 ubiquitin protein ligase), expressed in HEK293 cells (enzyme, UniProt Q8VCM5 1-352)
chain: MESGSRPSLGQVILLGTSSMVTAVLYSIYRQKAQVAQELKGAKKIHLGEDLKGILSEAPGKCVPYAVIEGAVRSVKETLNSQFVENCKGVIQRLSLQEHKMVWNRTTHLWNDYSKIIHQRTNTVPFDLVPHEDGVAVSVRVLKPLDSVDLGLETVYEKFHPSVQSFTDAIGHYISGERPKGIQETEEMLKVGATLTGIGELVLDNNAVRLQPPKQGMQYYLSSQDFDSLLHRQESSVRLWKILVLVFGFATCATLFFILRKQYLHRQERLRQQQLQEEFLEHEAQLLSQASPEDRESLKSACVVCLSNFKSCVFLECGHVCSCRQCYLALPEPKRCPICRREITRVIPLYNS

binding [2]: binds
B2: endogenous Mul1 of J774A.1 cells (enzyme, UniProt Q8VCM5 1-352)
chain: B1 chain
